Assay results as given in PubChem BioAssay AID1487 (National Center for Advancing Translational Sciences (NCATS), 2009).
The list shows a part of the results. Further columns of the screen follow, without active or inactive calls. Compounds called inactive in the main read-out are mostly missing here. The note in brackets gives the kind of curve behind each potency; many fits are weak.

Assay: qHTS Assay for Modulators of Lamin A Splicing
Conditions: HeLa LMNA splicing GFP/RFP minigene ratio, 48 h
In short: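 S3 HeLa stable clones carrying a lamin A-EGFP splicing minigene plus DsRed2 were seeded at 600 cells/well in Opti-MEM with 2% FBS, pin-dosed and incubated 48 h at 37°C. Acumen cytometry (488 nm) gave the GFP/RFP total-intensity ratio.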

[1] = measured here: GFP splicing reporter channel
[2] = measured here: RFP viability control channel

SMILES	AC50 [1]	AC50 [2]
CSc1nc(N)nc(SCC(=O)Nc2cccc(F)c2)c1C#N	0.0447 µM [rising, full curve, poor fit]	2.82 µM [rising, full curve]
CC(C)(C)n1nnnc1C(c1ccc(F)cc1)N1CCC(C(N)=O)CC1 (centres undefined)		1.41 µM [falling, full curve, poor fit]
CCOC(=O)C1=C(C)NC(C)=C(C(=O)OCC)C1c1ccccc1C=CC(=O)OC(C)(C)C	35.5 µM [falling, partial curve, poor fit]	35.5 µM [falling, single point]
O=C(CN1CCC(n2nnc3cc(C(F)(F)F)ccc32)CC1)Nc1ccc2c(c1)OCCO2	11.2 µM [rising, partial curve]	17.8 µM [rising, partial curve]
CCOC(=O)c1oc2ccc3c(c2c1C)C(=O)CC1(CCN(C(=O)OCC)CC1)O3	35.5 µM [rising, single point]	35.5 µM [rising, single point]
COc1ccc(CCNS(=O)(=O)c2ccc(N3CCCCS3(=O)=O)cc2)cc1OC		3.98 µM [falling, full curve, poor fit]
Cc1cc(NC(=O)/C=C/C(=O)N(c2ccccc2C)C(C(=O)NC2CCCC2)c2ccc(F)cc2)no1 (centres undefined)	14.1 µM [falling, single point]	0.178 µM [falling, single point]
COc1cccc(CC2(CO)CCCN(Cc3cn[nH]c3C3CCCCC3)C2)c1 (centres undefined)		4.47 µM [falling, partial curve, poor fit]
C1=C(c2ccccc2)Nc2ccccc2N=C1c1ccccc1	12.6 µM [rising, single point]	35.5 µM [rising, single point]
O=C(Cn1cnc2onc(-c3ccc(F)cc3)c2c1=O)Nc1cccc(C(F)(F)F)c1	20 µM [falling, partial curve]	17.8 µM [falling, partial curve]
COc1ccccc1N(CC(O)Cn1c2ccccc2c2ccccc21)S(=O)(=O)c1ccccc1 (centres undefined)	10 µM [rising, partial curve]	14.1 µM [rising, partial curve]
COc1ccc(N=C(NN)c2ccc3ccccc3n2)cc1	35.5 µM [rising, single point]	
CCc1ccc(NSc2ccccc2[N+](=O)[O-])cc1		15.8 µM [rising, partial curve]
O=C(Nc1nc2ccccc2n1CCOc1ccccc1)c1ccco1		35.5 µM [rising, single point]
C/C(=N\NC(=O)Cc1ccc(Cl)cc1)c1ccccn1	3.16 µM [falling, single point]	17.8 µM [falling, partial curve]
CC(C)=CCN1CCN(Cc2ccc(C)s2)CC1CCO (centres undefined)	6.31 µM [rising, single point]	
CCC(C(=O)NNC(=O)c1cnccn1)c1ccccc1 (centres undefined)		22.4 µM [rising, single point]
C=CCSc1nnc(NC(=O)CSc2nc(CCC)cc(=O)[nH]2)s1		12.6 µM [rising, partial curve, poor fit]
Cc1cc(C)cc(NC(=O)CSc2nnc(-c3ccccc3Br)o2)c1	15.8 µM [falling, single point]	
Cc1nnc(-c2ccc(Oc3ccc(C)c(C)c3)c([N+](=O)[O-])c2)o1	31.6 µM [rising, single point]	31.6 µM [rising, single point]
Cc1cc(NC(=O)CSc2nnc(C(C)N(C)C)n2Cc2ccccc2)no1 (centres undefined)		0.00447 µM [falling, full curve, poor fit]
Cc1ccc(NC(=O)c2cc(S(=O)(=O)c3ccccc3)ccc2Cl)cc1	31.6 µM [rising, single point]	35.5 µM [rising, single point]
O=C(Nc1ccc(S(=O)(=O)NCc2ccco2)cc1)c1ccncc1		15.8 µM [rising, single point]
O=C(Nc1ccc(NC(=O)C2CC2)cn1)c1ccccc1Cl		14.1 µM [rising, single point]
Cc1ccc(NC(=O)CSc2nnnn2C)cc1S(=O)(=O)N(C)C		7.08 µM [rising, partial curve, poor fit]
CCOC(=O)c1ccc(-n2ccnc2)c(NC(=O)c2ccc(C(C)(C)C)cc2)c1		1.58 µM [rising, partial curve]
Cn1cccc1C1NC(=O)c2c(sc3c2CCC(C(C)(C)C)C3)N1 (centres undefined)		31.6 µM [rising, single point]

Part of the list above in order of length of the SMILES, largest number first:
SMILES	AC50 [1]	AC50 [2]
C=CCSc1nnc(NC(=O)CSc2nc(CCC)cc(=O)[nH]2)s1		12.6 µM [rising, partial curve, poor fit]
Cc1ccc(NC(=O)CSc2nnnn2C)cc1S(=O)(=O)N(C)C		7.08 µM [rising, partial curve, poor fit]
CCC(C(=O)NNC(=O)c1cnccn1)c1ccccc1 (centres undefined)		22.4 µM [rising, single point]

Next records:

SMILES	AC50 [1]	AC50 [2]
CC(C)[C@H](NC(=O)c1ccc(C(C)(C)C)cc1)C(=O)Nc1nnc(C2CC2)s1	12.6 µM [rising, single point]	22.4 µM [rising, single point]
CC1CC(C)(C)N(C(=O)CSc2ccc(-c3ccc(F)cc3)nn2)c2ccccc21 (centres undefined)	22.4 µM [falling, single point]	35.5 µM [falling, single point]
Clc1ccc(CSc2nnc(CNc3cccc(Cl)c3)o2)cc1		35.5 µM [rising, single point]
CC(Sc1nnnn1C1CCCCC1)C(=O)O (centres undefined)	14.1 µM [falling, single point]	
COc1ccccc1NS(=O)(=O)c1cc(NC(=O)c2sc3cc(Cl)ccc3c2Cl)ccc1C	28.2 µM [falling, single point]	12.6 µM [falling, partial curve, poor fit]
CCCCCCCC[n+]1cccc(C(=O)N(CC)CC)c1	11.2 µM [rising, partial curve]	0.794 µM [rising, partial curve]
CC(=O)N1CCN(c2ccc(Nc3nc(C)nc4c3oc3ccccc34)cc2)CC1	10 µM [rising, partial curve]	11.2 µM [rising, partial curve]
CCN1CCN(C(=O)CSc2cc(=O)n(CC)c3ccccc23)CC1		12.6 µM [rising, single point]
Cc1cc(NC(=S)N(CCCN2CCN(C)CC2)Cc2ccco2)ccc1Cl	0.00355 µM [falling, full curve, poor fit]	
O=C(CN1CCOCC1)Nc1nc(-c2ccc3c(c2)CCN3S(=O)(=O)c2ccccc2)cs1		15.8 µM [rising, single point]
Cc1ccc(S(=O)(=O)N2CCCCC2)cc1NC(=O)c1ccc2ccccc2n1	3.16 µM [rising, full curve, poor fit]	3.55 µM [rising, full curve, poor fit]
S=C(Nc1ccccc1)Nc1nc2ccccc2n1CCOc1ccc(Br)cc1	35.5 µM [falling, single point]	35.5 µM [falling, single point]
O=c1[nH]c(CN2CCN(c3ccccc3)CC2)nc2scc(-c3ccccc3)c12		12.6 µM [rising, partial curve]
CN(C)/C=C/C(=O)/C=C/c1cn(-c2ncc(C(F)(F)F)cc2Cl)c2ccccc12		35.5 µM [rising, single point]
CCCCN(CCCC)S(=O)(=O)c1ccc(NC(=O)Cc2cccs2)cc1		35.5 µM [rising, single point]
COc1ccccc1N1CCN(CCN2C(=O)CC3(CCCC3)CC2=O)CC1		6.31 µM [falling, single point]
C[C@H]1[C@@H](O)[C@@H](C)\C=C/C=C\C=C/C=C\C=C/C=C\C=C/[C@@H](O[C@H]2O[C@@H](C)[C@@H](O)[C@@H](N)[C@@H]2O)C[C@@H]2O[C@](O)(C[C@@H](O)C[C@@H](O)[C@@H](O)CC[C@@H](O)C[C@@H](O)CC(=O)O[C@H]1C)C[C@@H](O)[C@H]2C(=O)O (stereo in doubt)	0.000891 µM [falling, full curve]	
c1ccc(CCN2CCN(c3ncnc4c3cnn4-c3ccccc3)CC2)cc1		35.5 µM [rising, single point]
Nc1ccc(C(=O)OCC(=O)N2c3ccccc3Sc3ccccc32)cc1[N+](=O)[O-]		14.1 µM [rising, single point]
COC(=O)c1ccccc1NC(=O)CNc1cc(OC)c(OC)cc1C		2.24 µM [rising, full curve]
COc1ccc(-c2cn3cc(C)ccc3n2)cc1F		12.6 µM [falling, partial curve, poor fit]
O=C(CN1CCN(S(=O)(=O)c2ccc(Cl)cc2)CC1)NC(=O)NC1CCCCC1	12.6 µM [rising, single point]	20 µM [rising, single point]
Cc1sc2ncnc(NCCc3ccc(S(N)(=O)=O)cc3)c2c1C		2.24 µM [rising, full curve]
COc1cccc(/C=C/C(=O)OCC(=O)Nc2ccc(S(=O)(=O)N3CCCC3)cc2)c1		0.0501 µM [falling, full curve, poor fit]
CCCNC(=O)c1cc2n(n1)CCCN(Cc1ccc(C)cc1)C2=O	0.0501 µM [falling, full curve, poor fit]	
COc1ccc(C(=O)/C=C/c2cccs2)c(OC(=O)c2cccc([N+](=O)[O-])c2)c1	35.5 µM [falling, single point]	
Cc1cc(-c2nnc(-c3cc4ccccc4oc3=O)o2)c(C)n1-c1ccccc1	3.16 µM [rising, single point]	4.47 µM [rising, single point]
